Experimental data reported in publication PMC8274477.
These are yes or no findings as the source states them, for the method shown. Some binding calls cover weakened binding; strength is not graded here.

Protein sequences, listed by entry. Tags and fused reporters are not part of them.
UniProt Q53SZ7: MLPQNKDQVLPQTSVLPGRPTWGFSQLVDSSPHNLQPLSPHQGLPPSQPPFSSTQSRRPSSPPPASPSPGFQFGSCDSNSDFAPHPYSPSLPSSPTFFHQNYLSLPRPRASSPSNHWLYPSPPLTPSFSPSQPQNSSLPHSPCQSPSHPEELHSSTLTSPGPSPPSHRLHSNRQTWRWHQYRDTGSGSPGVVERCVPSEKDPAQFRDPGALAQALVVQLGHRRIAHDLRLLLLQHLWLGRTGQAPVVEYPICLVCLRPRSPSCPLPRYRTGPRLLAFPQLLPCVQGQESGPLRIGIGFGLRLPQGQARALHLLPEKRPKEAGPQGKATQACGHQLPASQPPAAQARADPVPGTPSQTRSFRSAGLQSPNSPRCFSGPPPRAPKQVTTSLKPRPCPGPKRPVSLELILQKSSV

Tests used:
Assay in all cases: peptide or protein array; HuProt human proteome microarray; 5 ug/5 ml biotin-labelled LUBAC or OTULIN in solution, 1 h at room temperature; Cy5-streptavidin, scanned at 635 nm; BSA as negative control; hits: Z-score >= 3 and I_(Mean_Ratio) >= 1.4; both purified
MISP (human) = molecular target: T1, MISP (human) (UniProt Q8IVT2)
T1 sequence: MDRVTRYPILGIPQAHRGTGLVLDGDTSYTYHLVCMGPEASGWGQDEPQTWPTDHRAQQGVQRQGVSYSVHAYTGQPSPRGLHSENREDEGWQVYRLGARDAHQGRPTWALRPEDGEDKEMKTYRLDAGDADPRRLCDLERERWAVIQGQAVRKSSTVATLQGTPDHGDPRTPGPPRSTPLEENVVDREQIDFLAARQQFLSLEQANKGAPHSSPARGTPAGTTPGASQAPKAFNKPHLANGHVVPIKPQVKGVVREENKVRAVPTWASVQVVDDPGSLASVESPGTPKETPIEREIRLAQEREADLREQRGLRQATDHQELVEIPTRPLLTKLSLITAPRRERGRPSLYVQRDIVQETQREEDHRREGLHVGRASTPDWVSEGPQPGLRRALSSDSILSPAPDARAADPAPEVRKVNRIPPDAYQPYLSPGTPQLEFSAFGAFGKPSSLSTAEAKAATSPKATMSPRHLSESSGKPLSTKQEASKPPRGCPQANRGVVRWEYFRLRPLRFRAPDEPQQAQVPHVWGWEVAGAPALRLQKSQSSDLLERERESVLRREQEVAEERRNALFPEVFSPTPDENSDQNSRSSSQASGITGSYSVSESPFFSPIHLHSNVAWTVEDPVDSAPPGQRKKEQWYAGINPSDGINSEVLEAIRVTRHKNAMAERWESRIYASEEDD

SHMT1 (human) = molecular target: T2, SHMT1 (human) (UniProt P34896)
T2 sequence: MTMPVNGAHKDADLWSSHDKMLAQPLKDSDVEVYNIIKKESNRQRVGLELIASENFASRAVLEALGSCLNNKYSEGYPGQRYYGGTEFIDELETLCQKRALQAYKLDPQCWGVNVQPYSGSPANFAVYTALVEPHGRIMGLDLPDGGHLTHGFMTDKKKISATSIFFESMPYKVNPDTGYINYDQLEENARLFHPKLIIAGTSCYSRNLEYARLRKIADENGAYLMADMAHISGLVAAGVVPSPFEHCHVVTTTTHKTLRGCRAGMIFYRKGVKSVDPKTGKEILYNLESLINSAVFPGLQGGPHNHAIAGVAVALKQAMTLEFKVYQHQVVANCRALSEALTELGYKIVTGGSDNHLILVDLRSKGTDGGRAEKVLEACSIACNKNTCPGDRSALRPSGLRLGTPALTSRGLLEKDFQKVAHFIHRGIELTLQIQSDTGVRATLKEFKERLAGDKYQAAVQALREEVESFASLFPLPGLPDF

PRR30 (human) = PRR30 (human) (UniProt Q53SZ7)
PXK (human) = molecular target: T3, PXK (human) (UniProt Q7Z7A4)
T3 sequence: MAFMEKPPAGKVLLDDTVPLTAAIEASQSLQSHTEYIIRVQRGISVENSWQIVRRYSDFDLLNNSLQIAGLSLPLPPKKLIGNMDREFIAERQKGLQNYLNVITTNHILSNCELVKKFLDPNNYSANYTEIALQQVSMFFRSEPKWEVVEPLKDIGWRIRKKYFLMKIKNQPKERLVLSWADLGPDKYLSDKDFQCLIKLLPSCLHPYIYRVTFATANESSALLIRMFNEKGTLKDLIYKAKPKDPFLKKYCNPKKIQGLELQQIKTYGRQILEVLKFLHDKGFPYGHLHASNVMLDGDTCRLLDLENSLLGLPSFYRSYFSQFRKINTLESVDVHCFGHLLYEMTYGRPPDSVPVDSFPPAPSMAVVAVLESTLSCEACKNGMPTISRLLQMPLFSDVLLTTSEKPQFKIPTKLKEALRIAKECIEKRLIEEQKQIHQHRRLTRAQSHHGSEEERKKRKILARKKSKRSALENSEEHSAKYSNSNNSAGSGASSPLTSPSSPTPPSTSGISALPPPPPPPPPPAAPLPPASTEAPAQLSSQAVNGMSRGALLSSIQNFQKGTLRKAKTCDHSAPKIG

binding (MISP (human)): binds
binding (SHMT1 (human)): binds
binding (PRR30 (human)): binds
binding (PXK (human)): binds
Substance: linear ubiquitin chain assembly complex (LUBAC), purified as HIS-tagged HOIP with the subunit HOIL-1, biotin-labelled (from UniProt Q96EP0 1-1072; Q9BYM8 1-510)
